Data from article doi:10.1101/2025.01.16.633295.

Amino acid sequences for entries named in this document (tags omitted).
UniProt B5DF89: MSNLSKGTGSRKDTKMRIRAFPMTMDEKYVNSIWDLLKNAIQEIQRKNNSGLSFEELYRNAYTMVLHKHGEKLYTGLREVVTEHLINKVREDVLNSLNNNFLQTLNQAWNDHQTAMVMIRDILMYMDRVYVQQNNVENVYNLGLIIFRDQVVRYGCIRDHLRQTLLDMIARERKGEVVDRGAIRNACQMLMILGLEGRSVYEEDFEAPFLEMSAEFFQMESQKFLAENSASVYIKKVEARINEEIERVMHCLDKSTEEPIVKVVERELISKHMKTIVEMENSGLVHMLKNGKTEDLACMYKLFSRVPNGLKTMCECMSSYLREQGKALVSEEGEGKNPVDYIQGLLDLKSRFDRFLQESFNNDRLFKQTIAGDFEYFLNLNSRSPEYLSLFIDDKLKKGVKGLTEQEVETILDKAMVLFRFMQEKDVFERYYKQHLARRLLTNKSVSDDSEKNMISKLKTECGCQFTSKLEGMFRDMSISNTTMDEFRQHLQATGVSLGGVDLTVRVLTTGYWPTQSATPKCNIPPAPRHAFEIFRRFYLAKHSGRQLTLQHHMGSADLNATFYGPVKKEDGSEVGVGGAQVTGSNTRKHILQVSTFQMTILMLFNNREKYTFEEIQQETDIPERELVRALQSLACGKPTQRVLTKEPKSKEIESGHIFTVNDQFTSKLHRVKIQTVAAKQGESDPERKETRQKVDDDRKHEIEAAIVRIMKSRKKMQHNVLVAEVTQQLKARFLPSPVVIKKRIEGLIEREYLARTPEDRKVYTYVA

Target: T1, GST-TIA1 (T-cell intracellular antigen 1) (UniProt P31483)
T1 sequence: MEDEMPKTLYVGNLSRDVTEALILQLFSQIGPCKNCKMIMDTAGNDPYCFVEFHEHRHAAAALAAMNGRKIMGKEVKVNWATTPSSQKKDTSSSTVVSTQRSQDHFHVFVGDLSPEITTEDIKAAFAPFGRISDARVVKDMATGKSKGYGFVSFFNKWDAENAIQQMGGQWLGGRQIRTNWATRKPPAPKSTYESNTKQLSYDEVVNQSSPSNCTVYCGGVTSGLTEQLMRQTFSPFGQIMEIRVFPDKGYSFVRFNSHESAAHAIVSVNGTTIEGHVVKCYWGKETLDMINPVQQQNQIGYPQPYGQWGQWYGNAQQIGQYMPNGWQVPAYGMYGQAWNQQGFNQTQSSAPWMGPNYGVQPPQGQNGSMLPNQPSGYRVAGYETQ
Assay: affinity purification with mass spectrometry

binding: binds
Molecule: CUL3, endogenous, rat brain (from UniProt B5DF89 1-768)

binding: binds
B1: Annexin A7 (ANXA7), endogenous, rat (protein, UniProt Q6IRJ7 1-485)
chain: MSYPGYPPTGYPPFPGYPPAGQESSFPTSGQYPYPSGFPPMGGGAYPPAPSGGYPGAGGYPSPGGYPAPGGYPGTLNPGGPPSYPGGQGFGAPPGGAGFSGYPQPPAQSYGGGPAQVPVPGGFPGGQMPSQYPGGQSPYPGQIDTESFSSYPAFSPVSLDYSSDPAAMTQGTQGTIRPASNFDAMRDAEILRKAMKGFGTDEQAIVDVVSNRSNDQRQQIKAAFKTMYGKDLIKDLKSELSGNMEELILALFMPPTYYDAWSLRKAIQGAGTQERVLIEILCTRTNQEIRDIVRCYQLEFGRELERDIRSDTSGHFERLLVSMCQGNRDESPSINHQMAQEDAQRLYQAGEGRLGTDESCFNMILATRSFPQLRATMEAYSRMANRDLLSSVSREFSGYVESGLKTILQCALNRPAFFAERLYYSMKGAGTDDSTLVRIVVTRSEIDLVQIKQMFTQMYQKTLSTMIASDTSGDYRKLLLAIVGQ

Results are given in words; binding and its absence hold for the method and conditions named. Binding seen in cells or lysates may run through a third protein. Here binding means that the protein was enriched with, or labelled near, the bait; the list need not be complete. Sequences can lack the tags named with a protein. Each block holds one molecule with its values, some of them ahead of it.
